Test results as given in the supplement of paper PMC12819154, “High-throughput peptide-centric local stability assay extends protein–ligand identification to membrane proteins, tissues and bacteria” (Nature Structural & Molecular Biology, 2025).
The other results are listed elsewhere or left out. Most entries show no effect beyond the scatter of the controls.

Sequences of proteins named here, by UniProt entry; tags and fusion partners are left off. A change or cut given only in a name is not applied to a line headed by its entry.
UniProt Q9NSI2: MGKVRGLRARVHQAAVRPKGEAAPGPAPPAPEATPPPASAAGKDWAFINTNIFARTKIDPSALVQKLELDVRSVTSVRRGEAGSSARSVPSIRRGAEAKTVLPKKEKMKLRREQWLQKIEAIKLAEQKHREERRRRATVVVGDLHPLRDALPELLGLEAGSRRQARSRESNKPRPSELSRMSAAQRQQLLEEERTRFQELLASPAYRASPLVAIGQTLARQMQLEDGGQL
UniProt Q9NSP4: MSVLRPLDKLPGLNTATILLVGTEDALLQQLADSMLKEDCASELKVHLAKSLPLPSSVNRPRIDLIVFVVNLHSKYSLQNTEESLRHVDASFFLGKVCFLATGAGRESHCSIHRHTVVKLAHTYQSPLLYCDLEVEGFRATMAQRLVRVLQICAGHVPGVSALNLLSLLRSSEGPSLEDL
UniProt Q9NPJ4: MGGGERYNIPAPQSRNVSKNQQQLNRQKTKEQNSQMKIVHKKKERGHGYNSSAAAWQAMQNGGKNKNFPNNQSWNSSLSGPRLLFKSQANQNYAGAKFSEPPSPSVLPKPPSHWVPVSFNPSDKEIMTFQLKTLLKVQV
UniProt Q9NRR5, whole entry: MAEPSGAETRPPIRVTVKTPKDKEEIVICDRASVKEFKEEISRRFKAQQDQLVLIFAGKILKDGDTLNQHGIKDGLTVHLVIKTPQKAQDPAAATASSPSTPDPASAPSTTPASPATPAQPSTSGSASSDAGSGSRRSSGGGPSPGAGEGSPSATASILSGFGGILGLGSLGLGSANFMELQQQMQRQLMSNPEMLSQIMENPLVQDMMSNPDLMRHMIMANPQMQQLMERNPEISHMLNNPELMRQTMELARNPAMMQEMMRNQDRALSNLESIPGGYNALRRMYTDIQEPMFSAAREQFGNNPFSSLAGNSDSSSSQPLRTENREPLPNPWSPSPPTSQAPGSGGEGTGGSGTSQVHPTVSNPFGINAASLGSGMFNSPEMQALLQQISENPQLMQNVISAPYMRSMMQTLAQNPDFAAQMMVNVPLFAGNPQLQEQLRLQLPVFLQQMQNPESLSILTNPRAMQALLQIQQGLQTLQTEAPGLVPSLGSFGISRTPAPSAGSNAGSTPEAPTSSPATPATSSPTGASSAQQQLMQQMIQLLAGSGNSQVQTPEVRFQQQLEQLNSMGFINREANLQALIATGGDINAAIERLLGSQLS
UniProt Q9NR09, whole entry: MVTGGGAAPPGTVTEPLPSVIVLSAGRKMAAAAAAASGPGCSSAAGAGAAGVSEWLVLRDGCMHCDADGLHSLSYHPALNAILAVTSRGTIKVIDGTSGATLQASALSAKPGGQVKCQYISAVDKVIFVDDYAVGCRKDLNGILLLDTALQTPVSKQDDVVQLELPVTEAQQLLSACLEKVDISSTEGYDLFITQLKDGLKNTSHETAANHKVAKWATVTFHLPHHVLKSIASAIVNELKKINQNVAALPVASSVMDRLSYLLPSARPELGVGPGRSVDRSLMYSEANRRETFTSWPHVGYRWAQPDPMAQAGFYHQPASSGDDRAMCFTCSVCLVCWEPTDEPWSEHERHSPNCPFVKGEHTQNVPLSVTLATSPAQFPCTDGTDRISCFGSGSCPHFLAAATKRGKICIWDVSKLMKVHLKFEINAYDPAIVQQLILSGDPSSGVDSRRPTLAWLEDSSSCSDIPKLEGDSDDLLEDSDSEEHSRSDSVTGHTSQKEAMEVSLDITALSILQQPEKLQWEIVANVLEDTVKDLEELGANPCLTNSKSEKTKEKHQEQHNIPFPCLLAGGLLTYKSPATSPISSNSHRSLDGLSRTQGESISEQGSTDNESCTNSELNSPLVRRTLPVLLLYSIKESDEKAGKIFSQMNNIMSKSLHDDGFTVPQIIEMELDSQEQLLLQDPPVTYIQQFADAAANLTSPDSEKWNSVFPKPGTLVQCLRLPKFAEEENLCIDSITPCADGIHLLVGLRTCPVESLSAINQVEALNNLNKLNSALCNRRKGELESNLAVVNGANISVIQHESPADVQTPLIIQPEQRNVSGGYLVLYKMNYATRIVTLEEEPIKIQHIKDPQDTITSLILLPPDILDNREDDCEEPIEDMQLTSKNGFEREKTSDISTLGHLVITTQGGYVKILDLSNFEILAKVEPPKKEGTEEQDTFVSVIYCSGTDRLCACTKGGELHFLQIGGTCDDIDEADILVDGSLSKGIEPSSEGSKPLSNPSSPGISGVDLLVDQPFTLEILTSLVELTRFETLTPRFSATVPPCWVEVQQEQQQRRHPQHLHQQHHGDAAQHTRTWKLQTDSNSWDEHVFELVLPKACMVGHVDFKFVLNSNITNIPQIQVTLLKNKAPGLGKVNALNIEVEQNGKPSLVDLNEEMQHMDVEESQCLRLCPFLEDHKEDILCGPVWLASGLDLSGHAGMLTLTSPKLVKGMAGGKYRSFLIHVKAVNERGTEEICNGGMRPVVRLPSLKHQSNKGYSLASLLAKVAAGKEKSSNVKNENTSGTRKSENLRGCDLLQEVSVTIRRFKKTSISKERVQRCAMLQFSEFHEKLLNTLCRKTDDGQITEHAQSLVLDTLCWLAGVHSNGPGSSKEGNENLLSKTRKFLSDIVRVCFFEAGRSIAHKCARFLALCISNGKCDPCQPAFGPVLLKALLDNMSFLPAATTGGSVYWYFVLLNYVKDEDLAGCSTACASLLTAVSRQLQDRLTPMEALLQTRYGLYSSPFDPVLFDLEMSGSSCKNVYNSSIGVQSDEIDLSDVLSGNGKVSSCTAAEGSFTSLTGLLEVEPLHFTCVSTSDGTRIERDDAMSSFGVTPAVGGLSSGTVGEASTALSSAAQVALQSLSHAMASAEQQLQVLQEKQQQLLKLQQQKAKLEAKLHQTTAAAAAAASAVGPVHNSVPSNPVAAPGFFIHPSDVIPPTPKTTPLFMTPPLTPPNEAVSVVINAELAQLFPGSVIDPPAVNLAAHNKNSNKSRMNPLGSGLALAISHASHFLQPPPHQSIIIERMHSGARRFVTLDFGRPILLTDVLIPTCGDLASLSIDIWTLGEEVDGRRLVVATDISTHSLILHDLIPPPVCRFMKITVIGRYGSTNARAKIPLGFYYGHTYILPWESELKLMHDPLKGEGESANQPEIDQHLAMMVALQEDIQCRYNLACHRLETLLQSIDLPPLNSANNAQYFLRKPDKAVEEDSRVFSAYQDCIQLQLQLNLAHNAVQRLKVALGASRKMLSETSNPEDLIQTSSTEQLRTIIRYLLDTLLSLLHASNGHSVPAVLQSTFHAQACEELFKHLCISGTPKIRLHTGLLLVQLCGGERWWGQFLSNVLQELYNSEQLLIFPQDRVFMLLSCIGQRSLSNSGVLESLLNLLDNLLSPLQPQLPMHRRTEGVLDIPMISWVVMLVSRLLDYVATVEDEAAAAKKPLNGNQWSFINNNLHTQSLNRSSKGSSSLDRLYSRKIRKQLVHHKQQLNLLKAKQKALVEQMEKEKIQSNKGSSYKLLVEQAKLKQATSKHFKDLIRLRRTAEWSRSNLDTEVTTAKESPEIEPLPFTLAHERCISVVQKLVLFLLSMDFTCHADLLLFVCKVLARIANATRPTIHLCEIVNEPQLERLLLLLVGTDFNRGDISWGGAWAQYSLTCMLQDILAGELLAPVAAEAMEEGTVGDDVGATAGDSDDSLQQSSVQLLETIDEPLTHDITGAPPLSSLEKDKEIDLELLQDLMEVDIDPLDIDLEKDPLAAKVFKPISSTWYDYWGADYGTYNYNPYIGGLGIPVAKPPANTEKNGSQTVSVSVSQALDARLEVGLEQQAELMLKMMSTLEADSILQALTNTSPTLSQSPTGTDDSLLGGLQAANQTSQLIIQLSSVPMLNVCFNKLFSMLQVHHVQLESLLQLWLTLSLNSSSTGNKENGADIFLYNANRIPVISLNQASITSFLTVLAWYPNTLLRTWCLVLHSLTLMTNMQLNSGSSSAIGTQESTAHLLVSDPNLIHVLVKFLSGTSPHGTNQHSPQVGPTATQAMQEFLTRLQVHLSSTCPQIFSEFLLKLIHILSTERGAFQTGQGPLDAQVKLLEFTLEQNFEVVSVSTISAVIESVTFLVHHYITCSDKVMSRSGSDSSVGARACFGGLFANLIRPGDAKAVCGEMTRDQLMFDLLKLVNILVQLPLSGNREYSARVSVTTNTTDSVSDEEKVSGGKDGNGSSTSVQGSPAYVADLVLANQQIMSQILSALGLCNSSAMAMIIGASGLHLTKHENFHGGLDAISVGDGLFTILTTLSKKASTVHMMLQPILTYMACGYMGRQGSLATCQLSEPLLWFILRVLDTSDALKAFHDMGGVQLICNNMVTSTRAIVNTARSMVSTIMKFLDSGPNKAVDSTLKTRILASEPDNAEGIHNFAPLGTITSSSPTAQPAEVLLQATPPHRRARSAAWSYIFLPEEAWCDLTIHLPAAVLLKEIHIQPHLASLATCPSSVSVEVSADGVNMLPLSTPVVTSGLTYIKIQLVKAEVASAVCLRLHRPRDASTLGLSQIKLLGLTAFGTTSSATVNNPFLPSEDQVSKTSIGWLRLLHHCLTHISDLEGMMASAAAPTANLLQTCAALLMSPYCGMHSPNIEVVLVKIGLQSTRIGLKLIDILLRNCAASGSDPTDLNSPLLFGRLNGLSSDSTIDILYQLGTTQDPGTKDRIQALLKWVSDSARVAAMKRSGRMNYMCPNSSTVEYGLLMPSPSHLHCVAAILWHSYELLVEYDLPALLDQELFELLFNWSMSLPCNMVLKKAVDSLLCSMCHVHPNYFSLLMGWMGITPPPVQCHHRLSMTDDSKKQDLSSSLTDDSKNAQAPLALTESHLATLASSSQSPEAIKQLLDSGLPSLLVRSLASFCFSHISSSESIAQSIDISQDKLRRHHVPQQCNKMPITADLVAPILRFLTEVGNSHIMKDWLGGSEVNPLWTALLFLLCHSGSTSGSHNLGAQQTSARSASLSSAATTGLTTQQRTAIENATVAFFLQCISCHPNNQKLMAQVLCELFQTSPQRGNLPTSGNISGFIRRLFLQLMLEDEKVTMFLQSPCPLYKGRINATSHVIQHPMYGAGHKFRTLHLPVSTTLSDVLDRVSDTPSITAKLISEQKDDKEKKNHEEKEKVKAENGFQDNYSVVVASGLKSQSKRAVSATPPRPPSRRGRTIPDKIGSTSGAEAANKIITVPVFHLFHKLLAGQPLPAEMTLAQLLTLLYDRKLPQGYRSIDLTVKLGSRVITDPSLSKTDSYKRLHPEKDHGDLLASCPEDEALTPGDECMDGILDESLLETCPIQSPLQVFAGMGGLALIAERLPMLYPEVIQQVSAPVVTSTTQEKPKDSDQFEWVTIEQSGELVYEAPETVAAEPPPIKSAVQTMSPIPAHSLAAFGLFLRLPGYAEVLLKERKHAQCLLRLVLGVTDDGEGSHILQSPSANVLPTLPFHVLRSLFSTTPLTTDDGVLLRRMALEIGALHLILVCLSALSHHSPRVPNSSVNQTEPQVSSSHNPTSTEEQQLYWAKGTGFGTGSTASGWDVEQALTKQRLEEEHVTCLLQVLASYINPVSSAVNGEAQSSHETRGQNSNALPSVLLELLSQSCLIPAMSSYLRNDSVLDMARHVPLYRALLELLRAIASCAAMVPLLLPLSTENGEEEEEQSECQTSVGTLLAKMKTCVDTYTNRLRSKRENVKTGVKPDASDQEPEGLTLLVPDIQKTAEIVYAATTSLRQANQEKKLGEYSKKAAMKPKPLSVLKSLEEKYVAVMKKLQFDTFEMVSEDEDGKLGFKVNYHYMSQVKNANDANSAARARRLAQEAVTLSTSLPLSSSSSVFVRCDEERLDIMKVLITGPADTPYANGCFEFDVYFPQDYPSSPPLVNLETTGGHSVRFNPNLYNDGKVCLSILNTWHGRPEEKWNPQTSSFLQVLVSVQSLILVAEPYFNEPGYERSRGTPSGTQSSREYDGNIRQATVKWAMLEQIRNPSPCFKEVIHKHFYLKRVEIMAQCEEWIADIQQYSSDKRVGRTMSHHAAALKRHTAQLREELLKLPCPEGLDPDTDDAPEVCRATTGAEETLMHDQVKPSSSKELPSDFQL
UniProt Q9NP31, whole entry, looked up: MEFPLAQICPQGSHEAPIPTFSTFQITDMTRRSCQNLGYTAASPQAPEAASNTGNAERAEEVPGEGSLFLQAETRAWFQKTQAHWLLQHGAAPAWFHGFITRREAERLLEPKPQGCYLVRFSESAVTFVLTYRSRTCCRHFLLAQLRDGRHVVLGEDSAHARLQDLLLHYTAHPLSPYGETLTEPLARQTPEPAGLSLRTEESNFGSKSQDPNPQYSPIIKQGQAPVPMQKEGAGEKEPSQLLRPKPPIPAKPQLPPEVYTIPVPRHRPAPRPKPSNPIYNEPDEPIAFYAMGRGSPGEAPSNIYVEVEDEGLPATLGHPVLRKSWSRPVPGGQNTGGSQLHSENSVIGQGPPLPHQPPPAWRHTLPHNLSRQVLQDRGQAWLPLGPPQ
UniProt Q9NRP2: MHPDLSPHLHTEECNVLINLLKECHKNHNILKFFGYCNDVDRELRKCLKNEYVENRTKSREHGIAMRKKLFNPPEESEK

What follows are targets tested with Cc1nc(Nc2ncc(C(=O)Nc3c(C)cccc3Cl)s2)cc(N2CCN(CCO)CC2)n1 [dasatinib] (assay: log2 fold change of tryptic peptide abundance, ligand vs vehicle (limited proteolysis) (log2 ratio); higher = more trypsin-susceptible (destabilized)). Conditions: ligand concentration: 5 uM; sample: K562 cleared lysate.
Target “GPATCH2L (peptide sequence: WAPDHCSEVER, peptide start residue: 269) (UniProt Q9NWQ4)” has a log2 fold change of -0.182.
“UniProt Q9NSI2 (peptide sequence: RGEAGSSAR, peptide start residue: 79)” gave a log2 fold change of 0.361.
In the case of “CENPM (peptide sequence: VCFLATGAGR, peptide start residue: 97) (UniProt Q9NSP4)”, the log2 fold change is reported as -0.261.
“BRD7 (peptide sequence: DLQCHAPVR, peptide start residue: 104) (UniProt Q9NPI1)” showed a log2 fold change of 1.19.
Work on “UniProt Q9NPJ4 (peptide sequence: SQANQNYAGAK, peptide start residue: 87)” yielded a log2 fold change of -0.0453.
“UBQLN4 (peptide sequence: DKEEIVICDR, peptide start residue: 22) (UniProt Q9NRR5)” was tested, and the log2 fold change was 0.087.
“BIRC6 (peptide sequence: GTPSGTQSSR, peptide start residue: 4716) (UniProt Q9NR09)” showed a log2 fold change of 0.157.
For “PNPO (peptide sequence: GLPTGDSPLGPMTHR, peptide start residue: 235) (UniProt Q9NVS9)”, the log2 fold change was -0.518.
“SH2D2A (peptide sequence: QTPEPAGLSLR, peptide start residue: 189) (UniProt Q9NP31)” gave a log2 fold change of -0.347.
“UniProt Q9NRP2 (peptide sequence: LFNPPEESEK, peptide start residue: 70)” gave a log2 fold change of 0.155.
“DDX19A (peptide sequence: TSTTAEKTDEEEKEDR, peptide start residue: 40) (UniProt Q9NUU7)” showed a log2 fold change of -0.0445.
